These results are taken from patent US20040161798A1.

Assay [1] addresses T1, GST-Pre1 (UniProt P22141).
T1 sequence (looked up): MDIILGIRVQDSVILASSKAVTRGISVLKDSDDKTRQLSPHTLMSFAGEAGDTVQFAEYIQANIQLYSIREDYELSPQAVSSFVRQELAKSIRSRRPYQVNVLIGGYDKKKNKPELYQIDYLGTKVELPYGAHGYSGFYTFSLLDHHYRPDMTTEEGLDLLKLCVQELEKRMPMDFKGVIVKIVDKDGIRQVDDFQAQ
As to the kind of experiment: protein retained on TentaGel beads with scrambled peptide, Western blot. On the technique in general: A western blot detects proteins with antibodies after separation by electrophoresis.

Assay [2] has as its target T1, GST-Pre1. Put plainly: dilution assay on TentaGel beads, Western blot.

No constants are given. Whether binding was seen depends on the method and setting. Some binding calls cover weakened binding; strength is not graded here. Sequences can lack the tags named with a protein.

In the case of SEFARDLAYGEYSQHVRWTHERATSR (attached to TentaGel resin in the bead assays) [Pre1bpscram], in the assay with GST-Pre1 [1], the binding result was “binds”.
Turning to SHSTARGEQERAAVYLWFTYDHRSER (attached to TentaGel resin in the bead assays) [Pre1bp], in the assay with GST-Pre1 [2], the binding entry was “binds”.
